# Experimental data reported in the supplement of paper PMC8728848.
# This is one part of the list.
# B1: PX14379D-pdi-530-26-530 (Parabacteroides distasonis) (protein)
# chain: DETVYDKLPADDFGQSTAELNALIGNSHNTMKKFWTEYMHLSECSGSMAVTPTRRGGDWYDGGQYREIYMHTWTSQTSRVKSAWKAATEAIGTCNEAIRKLQNSEILTEEEKAQDVADLRGVRAFWIYVMMDYWGNIPLLTEFHPTDKVFPGNSSRQEVFDWLIQEVEEIKDICPPATTENYGSFTQGAAYSLLAKLYLNAEAWGVTFSGNAYQKVIDNCDKVMAMGYILEPNWKDNFSVTNENSKEAILAATFSSSDTGNDGNVKNELHNNTLHYKDYLSLGITASGTWNGICAQPEYVRLFDEEDARLDGTFLTGLMIDKSTGKPIMTDHNNELNHTIDVNMIPGMEYDGTNWSAVEQHDGARCFKWEFASDLTSSMGNDFHIFRLADIYLMKAEALLRGGGSVSEATALVNTIRERGYGNSDHNYATVTLKEVQLERRLELAWEVYSRQDDIRFGCFTTGMWPQSNCERKADDYLKLLPVSQDAWQVNPNLKQNPGYAAFSK
# Key:
# Assay in all cases: glycan array binding signal (z-score within array); higher = stronger binding
# Settings in all cases: glycan notation: IUPAC condensed, linker removed
# [1] = target: GlcNAc(b1-2)Gal(b1-3)GalNAc
# Method in brief: (§1)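 The Consortium for Functional Glycomics database supplied 3228 glycan arrays, of which those lacking an available protein sequence were dropped. The binding signal, a within-array Z-score, was averaged across arrays of the same protein sequence and across linkers. Negative scores can be read as non-binding.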
# [2] = target: GlcNAc(b1-2)Man(a1-3)[GlcNAc(b1-2)Man(a1-6)]Man(b1-4)GlcNAc(b1-4)GlcNAc
# Method in brief: as §1
# [3] = target: GlcNAc(b1-2)Man(a1-3)[GlcNAc(b1-2)Man(a1-6)]Man(b1-4)GlcNAc(b1-4)[Fuc(a1-6)]GlcNAc
# Method in brief: as §1
# [4] = target: GlcNAc(b1-2)Man(a1-3)[GlcNAc(b1-4)][GlcNAc(b1-2)Man(a1-6)]Man(b1-4)GlcNAc(b1-4)GlcNAc
# Method in brief: as §1
# [5] = target: GlcNAc(b1-2)Man(a1-3)[GlcNAc(b1-4)][GlcNAc(b1-2)Man(a1-6)]Man(b1-4)GlcNAc(b1-4)[Fuc(a1-6)]GlcNAc
# Method in brief: as §1
# [6] = target: GlcNAc(b1-2)[GlcNAc(b1-4)]Man(a1-3)[GlcNAc(b1-2)Man(a1-6)]Man(b1-4)GlcNAc(b1-4)GlcNAc
# Method in brief: as §1
# [7] = target: GlcNAc(b1-2)[GlcNAc(b1-4)]Man(a1-3)[GlcNAc(b1-4)][GlcNAc(b1-2)Man(a1-6)]Man(b1-4)GlcNAc(b1-4)GlcNAc
# Method in brief: as §1
# [8] = target: GlcNAc(b1-2)[GlcNAc(b1-4)]Man(a1-3)[GlcNAc(b1-4)][GlcNAc(b1-2)[GlcNAc(b1-6)]Man(a1-6)]Man(b1-4)GlcNAc(b1-4)GlcNAc
# Method in brief: as §1
# [9] = target: GlcNAc(b1-2)[GlcNAc(b1-4)]Man(a1-3)[GlcNAc(b1-4)][GlcNAc(b1-2)[GlcNAc(b1-6)]Man(a1-6)]Man(b1-4)GlcNAc(b1-4)[Fuc(a1-6)]GlcNAc
# Method in brief: as §1
# [10] = target: GlcNAc(b1-2)[GlcNAc(b1-6)]Man(a1-6)[GlcNAc(b1-2)Man(a1-3)]Man(b1-4)GlcNAc(b1-4)GlcNAc
# Method in brief: as §1
# [11] = target: GlcNAc(b1-2)[GlcNAc(b1-6)]Man(a1-6)[GlcNAc(b1-2)Man(a1-3)]Man(b1-4)GlcNAc(b1-4)[Fuc(a1-6)]GlcNAc
# Method in brief: as §1
# [12] = target: GlcNAc(b1-2)[GlcNAc(b1-6)]Man(a1-6)[GlcNAc(b1-4)][GlcNAc(b1-2)Man(a1-3)]Man(b1-4)GlcNAc(b1-4)GlcNAc
# Method in brief: as §1
# GlcNAc(b1-3)Fuc = target: GlcNAc(b1-3)Fuc
# Method in brief: as §1
# GlcNAc(b1-3)Gal = target: GlcNAc(b1-3)Gal
# Method in brief: as §1
# [13] = target: GlcNAc(b1-3)Gal(b1-3)GalNAc
# Method in brief: as §1
# GlcNAc(b1-3)Gal(b1-4)Glc = target: GlcNAc(b1-3)Gal(b1-4)Glc
# Method in brief: as §1
# [14] = target: GlcNAc(b1-3)Gal(b1-4)GlcNAc
# Method in brief: as §1
# [15] = target: GlcNAc(b1-3)Gal(b1-4)GlcNAc(b1-2)Man(a1-3)[GlcNAc(b1-3)Gal(b1-4)GlcNAc(b1-2)Man(a1-6)]Man(b1-4)GlcNAc(b1-4)GlcNAc
# Method in brief: as §1
# [16] = target: GlcNAc(b1-3)Gal(b1-4)GlcNAc(b1-2)Man(a1-3)[GlcNAc(b1-3)Gal(b1-4)GlcNAc(b1-2)Man(a1-6)]Man(b1-4)GlcNAc(b1-4)[Fuc(a1-6)]GlcNAc
# Method in brief: as §1
# [17] = target: GlcNAc(b1-3)Gal(b1-4)GlcNAc(b1-2)[GlcNAc(b1-3)Gal(b1-4)GlcNAc(b1-6)]Man(a1-6)[GlcNAc(b1-3)Gal(b1-4)GlcNAc(b1-2)Man(a1-3)]Man(b1-4)GlcNAc(b1-4)GlcNAc
# Method in brief: as §1
# [18] = target: GlcNAc(b1-3)Gal(b1-4)GlcNAc(b1-3)Gal(b1-4)GlcNAc
# Method in brief: as §1
# [19] = target: GlcNAc(b1-3)Gal(b1-4)GlcNAc(b1-3)Gal(b1-4)GlcNAc(b1-2)Man(a1-3)[GlcNAc(b1-3)Gal(b1-4)GlcNAc(b1-3)Gal(b1-4)GlcNAc(b1-2)Man(a1-6)]Man(b1-4)GlcNAc(b1-4)GlcNAc
# Method in brief: as §1
# [20] = target: GlcNAc(b1-3)Gal(b1-4)GlcNAc(b1-3)Gal(b1-4)GlcNAc(b1-2)Man(a1-3)[GlcNAc(b1-3)Gal(b1-4)GlcNAc(b1-3)Gal(b1-4)GlcNAc(b1-2)Man(a1-6)]Man(b1-4)GlcNAc(b1-4)[Fuc(a1-6)]GlcNAc
# Method in brief: as §1
# [21] = target: GlcNAc(b1-3)Gal(b1-4)GlcNAc(b1-3)Gal(b1-4)GlcNAc(b1-2)[GlcNAc(b1-3)Gal(b1-4)GlcNAc(b1-3)Gal(b1-4)GlcNAc(b1-6)]Man(a1-6)[GlcNAc(b1-3)Gal(b1-4)GlcNAc(b1-3)Gal(b1-4)GlcNAc(b1-2)Man(a1-3)]Man(b1-4)GlcNAc(b1-4)[Fuc(a1-6)]GlcNAc
# Method in brief: as §1
# [22] = target: GlcNAc(b1-3)Gal(b1-4)GlcNAc(b1-3)Gal(b1-4)GlcNAc(b1-3)Gal(b1-4)GlcNAc(b1-2)Man(a1-3)[GlcNAc(b1-3)Gal(b1-4)GlcNAc(b1-3)Gal(b1-4)GlcNAc(b1-3)Gal(b1-4)GlcNAc(b1-2)Man(a1-6)]Man(b1-4)GlcNAc(b1-4)GlcNAc
# Method in brief: as §1
# [23] = target: GlcNAc(b1-3)Gal(b1-4)GlcNAc(b1-3)Gal(b1-4)GlcNAc(b1-3)Gal(b1-4)GlcNAc(b1-2)Man(a1-3)[GlcNAc(b1-3)Gal(b1-4)GlcNAc(b1-3)Gal(b1-4)GlcNAc(b1-3)Gal(b1-4)GlcNAc(b1-2)Man(a1-6)]Man(b1-4)GlcNAc(b1-4)[Fuc(a1-6)]GlcNAc
# Method in brief: as §1
# [24] = target: GlcNAc(b1-3)Gal(b1-4)GlcNAc(b1-3)Gal(b1-4)GlcNAc(b1-3)Gal(b1-4)GlcNAc(b1-2)[GlcNAc(b1-3)Gal(b1-4)GlcNAc(b1-3)Gal(b1-4)GlcNAc(b1-3)Gal(b1-4)GlcNAc(b1-6)]Man(a1-6)[GlcNAc(b1-3)Gal(b1-4)GlcNAc(b1-3)Gal(b1-4)GlcNAc(b1-3)Gal(b1-4)GlcNAc(b1-2)Man(a1-3)]Man(b1-4)GlcNAc(b1-4)[Fuc(a1-6)]GlcNAc
# Method in brief: as §1
# [25] = target: GlcNAc(b1-3)Gal(b1-4)GlcNAc(b1-3)Gal(b1-4)GlcNAc(b1-3)Gal(b1-4)GlcNAc(b1-3)Gal(b1-4)GlcNAc(b1-2)Man(a1-3)[GlcNAc(b1-3)Gal(b1-4)GlcNAc(b1-3)Gal(b1-4)GlcNAc(b1-3)Gal(b1-4)GlcNAc(b1-3)Gal(b1-4)GlcNAc(b1-2)Man(a1-6)]Man(b1-4)GlcNAc(b1-4)GlcNAc
# Method in brief: as §1
# [26] = target: GlcNAc(b1-3)Gal(b1-4)GlcNAc(b1-3)Gal(b1-4)GlcNAc(b1-3)Gal(b1-4)GlcNAc(b1-3)Gal(b1-4)GlcNAc(b1-2)Man(a1-3)[GlcNAc(b1-3)Gal(b1-4)GlcNAc(b1-3)Gal(b1-4)GlcNAc(b1-3)Gal(b1-4)GlcNAc(b1-3)Gal(b1-4)GlcNAc(b1-2)Man(a1-6)]Man(b1-4)GlcNAc(b1-4)[Fuc(a1-6)]GlcNAc
# Method in brief: as §1
# [27] = target: GlcNAc(b1-3)Gal(b1-4)GlcNAc(b1-3)Gal(b1-4)GlcNAc(b1-3)Gal(b1-4)GlcNAc(b1-3)Gal(b1-4)GlcNAc(b1-2)[GlcNAc(b1-3)Gal(b1-4)GlcNAc(b1-3)Gal(b1-4)GlcNAc(b1-3)Gal(b1-4)GlcNAc(b1-3)Gal(b1-4)GlcNAc(b1-6)]Man(a1-6)[GlcNAc(b1-3)Gal(b1-4)GlcNAc(b1-3)Gal(b1-4)GlcNAc(b1-3)Gal(b1-4)GlcNAc(b1-3)Gal(b1-4)GlcNAc(b1-2)Man(a1-3)]Man(b1-4)GlcNAc(b1-4)[Fuc(a1-6)]GlcNAc
# Method in brief: as §1
# [28] = target: GlcNAc(b1-3)Gal(b1-4)GlcNAc(b1-3)Gal(b1-4)GlcNAc(b1-3)GalNAc
# Method in brief: as §1
# [29] = target: GlcNAc(b1-3)Gal(b1-4)GlcNAc(b1-3)GalNAc
# Method in brief: as §1
# [30] = target: GlcNAc(b1-3)Gal(b1-4)GlcNAc(b1-3)[GlcNAc(b1-3)Gal(b1-4)GlcNAc(b1-3)]GalNAc
# Method in brief: as §1
# [31] = target: GlcNAc(b1-3)Gal(b1-4)GlcNAc(b1-6)[Gal(b1-3)]GalNAc
# Method in brief: as §1
# [32] = target: GlcNAc(b1-3)Gal(b1-4)GlcNAc(b1-6)[GlcNAc(b1-3)Gal(b1-3)]GalNAc
# Method in brief: as §1
# [33] = target: GlcNAc(b1-3)Gal(b1-4)GlcNAc(b1-6)[GlcNAc(b1-3)]Gal(b1-4)GlcNAc
# Method in brief: as §1
# GlcNAc(b1-3)GalNAc = target: GlcNAc(b1-3)GalNAc
# Method in brief: as §1
binder,measurement,setting,value
B1,glycan array binding signal (z-score),[1],0.032
same,glycan array binding signal (z-score),[2],-0.793
same,glycan array binding signal (z-score),[3],0.597
same,glycan array binding signal (z-score),[4],-0.383
same,glycan array binding signal (z-score),[5],0.105
same,glycan array binding signal (z-score),[6],-0.409
same,glycan array binding signal (z-score),[7],-0.123
same,glycan array binding signal (z-score),[8],-0.189
same,glycan array binding signal (z-score),[9],-0.785
same,glycan array binding signal (z-score),[10],-0.244
same,glycan array binding signal (z-score),[11],-0.08
same,glycan array binding signal (z-score),[12],-0.725
same,glycan array binding signal (z-score),GlcNAc(b1-3)Fuc,0.618
same,glycan array binding signal (z-score),GlcNAc(b1-3)Gal,0.118
same,glycan array binding signal (z-score),[13],0.552
same,glycan array binding signal (z-score),GlcNAc(b1-3)Gal(b1-4)Glc,-0.587
same,glycan array binding signal (z-score),[14],-0.004
same,glycan array binding signal (z-score),[15],0.758
same,glycan array binding signal (z-score),[16],0.749
same,glycan array binding signal (z-score),[17],2.11
same,glycan array binding signal (z-score),[18],-0.149
same,glycan array binding signal (z-score),[19],2.91
same,glycan array binding signal (z-score),[20],2.19
same,glycan array binding signal (z-score),[21],1.55
same,glycan array binding signal (z-score),[22],-0.101
same,glycan array binding signal (z-score),[23],2.19
same,glycan array binding signal (z-score),[24],0.906
same,glycan array binding signal (z-score),[25],-0.442
same,glycan array binding signal (z-score),[26],0.569
same,glycan array binding signal (z-score),[27],0.713
same,glycan array binding signal (z-score),[28],-1.19
same,glycan array binding signal (z-score),[29],0.694
same,glycan array binding signal (z-score),[30],-0.79
same,glycan array binding signal (z-score),[31],-0.28
same,glycan array binding signal (z-score),[32],0.841
same,glycan array binding signal (z-score),[33],-0.751
same,glycan array binding signal (z-score),GlcNAc(b1-3)GalNAc,-0.05

# Fetched one by one from the list above (2):
binder,measurement,setting,value
B1,glycan array binding signal (z-score),[33],-0.751
same,glycan array binding signal (z-score),[19],2.91
